From PubChem BioAssay AID1439 (NMMLSC, 2008)
The campaign covered roughly 220,000 compounds. About 770 (0.35%) were called active. The inconclusive results got no clear call from the source; some entries with a clear call stand among them for comparison. Cut-off read from the data, not from the text of the source: active = binding response below about 49% or above about 150%; inconclusive = no clear call, values can overlap the other calls; inactive = in between.

The chains behind the UniProt entries cited, without tags or fusion partners.
UniProt P09471, whole entry, looked up: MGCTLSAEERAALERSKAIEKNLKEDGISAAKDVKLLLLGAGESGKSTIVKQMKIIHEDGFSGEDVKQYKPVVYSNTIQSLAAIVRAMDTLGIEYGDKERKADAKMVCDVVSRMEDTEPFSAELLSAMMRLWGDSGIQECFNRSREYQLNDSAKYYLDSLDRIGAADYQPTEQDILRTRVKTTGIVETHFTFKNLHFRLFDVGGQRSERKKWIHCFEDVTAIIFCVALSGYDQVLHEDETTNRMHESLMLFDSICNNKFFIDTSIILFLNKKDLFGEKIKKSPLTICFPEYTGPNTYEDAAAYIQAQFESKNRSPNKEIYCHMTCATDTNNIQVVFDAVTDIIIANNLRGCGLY

biological target: Guanine nucleotide-binding protein G(o) subunit alpha (Homo sapiens) (UniProt P09471); experiment: RGS7-Galphao binding modulators, primary screen, biochemical, multiplexed bead flow cytometry (AID 1439); settings: at 10 µM, actives lie on both sides;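 note: fluorescent Galphao held in activated GDP-AlF4 state binding bead-coupled RGS7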

Row | Structure (SMILES) | binding response (% of control)
1 | COC(=O)[C@H](Cc1c[nH]c2ccccc12)NC(=O)Nc1ccccc1OC | inconclusive: 105%
2 | COc1ccc(-c2cc(C(=O)Nc3c(C)nn(Cc4ccc(Cl)cc4)c3C)no2)cc1 | inactive: 135%
3 | O=C(CNC(=O)c1ccccc1F)OCc1csc(-c2ccccc2)n1 | inconclusive: 98.7%
4 | Cc1ccc(NC2SC(=O)N(Cc3cccc(C(=O)O)c3)C2=O)c(C)c1 (configuration not stated) | inconclusive: 80.7%
5 | CCCCNC(=S)N=Nc1c(O)[nH]c2ccccc12 | inconclusive: 78.9%
6 | CCCNCC(O)Cn1c2ccccc2n2c(=O)cc(C)c(C#N)c12 (configuration not stated) | inactive: 106%
7 | Cc1ccc(C2=NN(CC(=O)NCc3cccs3)C(=O)CC2)cc1 | inactive: 102%
8 | CCOC(=O)C1C(=O)OC(C)(C)C1C(CC)C(=O)c1ccccc1 (configuration not stated) | inconclusive: 119%
9 | CCCCCC/C=C/c1ccc([C@H]2[C@H]3C=CC[C@@H](C)[C@@H]3C(=O)N2Cc2ccccc2)c(F)c1 | inconclusive: 105%
10 | COc1ccccc1C(=O)NC(CCSC)C(=O)NC1CCCCCC1 (configuration not stated) | inconclusive: 104%
11 | COc1ccc(-c2noc(Cc3ccc(Cl)cc3)n2)cc1OC | active: 167% [activator]
12 | CC1(C)N=c2ccc([N+](=O)[O-])c(N)c2=[N+]1[O-] | inconclusive: 100%
13 | Cc1cc(CN(C)Cc2cn(C)nc2-c2ccc(Oc3ccccc3)cc2)on1 | inconclusive: 254%
14 | COc1ccc(OCCn2cnc(Cl)c2Cl)cc1 | inconclusive: 115%
15 | Cc1ccc(C)n1-c1ccc(-c2ccn[nH]2)cc1 | inconclusive: 111%
16 | O=C(O)c1ccc(N2C(=O)Nc3ccccc3N2O)cc1 | inactive: 102%
17 | O=C1Nc2ccccc2N(O)N1c1cc(-c2ccc(Cl)cc2)[nH]n1 | inactive: 101%
18 | O=C(CN1CCN(CC(=O)Nc2ccccc2F)CC1)Nc1ccc2c(c1)OCCO2 | inactive: 100%
19 | C=CCSc1nc(N2CCOCC2)c2c(c1C#N)CC(C)(C)N(C)C2 | inconclusive: 55.3%

Row | Structure (SMILES) | binding response (% of control)
20 | COc1ccc(-c2nc(C)sc2CC(=O)O)cc1OC | inconclusive: 101%
21 | COc1ccc(C2(CNC(=O)c3ccccc3)CCOCC2)cc1 | inconclusive: -117%
22 | N#Cc1c(N)nc2c(c1-c1ccc(F)cc1)CCC2 | inconclusive: 509%
23 | CCCCCC(=O)NC(=S)Nc1ccc2oc(=O)ccc2c1 | inconclusive: 104%
24 | CC(=O)c1c(N2CCOCC2)nc2ccc(Cl)cc2c1-c1ccccc1 | inconclusive: 70.3%
25 | COc1ccc(/C=N/n2cnc3c([nH]c4ccc(F)cc43)c2=O)cc1CN1CCCC1 | inconclusive: -468%
26 | O=C(CNCc1ccccc1Cl)Nc1ccc2c(c1)OCCO2 | inconclusive: -6.61%
27 | CCn1c(C)nc2cc(C(=O)N/N=C(\C)c3ccc(OC)cc3O)ccc21 | inconclusive: 88.7%
28 | COc1cccc(-c2nc(COc3ccc(Cl)cc3Cl)no2)c1 | inconclusive: 82.4%
29 | Cc1cccc(-n2nnnc2SCC(=O)c2cc(C)n(CC3CCCO3)c2C)c1 (configuration not stated) | inactive: 99%
30 | CCOC(=O)N/N=C1\CCS(=O)(=O)c2ccc(Cl)cc21 | inconclusive: 122%
31 | N=C1C(c2ccccc2)=C(O)CN1c1cccc(S(=O)(=O)NCc2ccco2)c1 | inconclusive: 226%
32 | O=C(Nc1ccc(NC(=O)c2ccco2)cc1)c1ccc2c(c1)OCCO2 | inconclusive: 133%
33 | COc1cccc(-n2c(SCC#N)nnc2-c2cnccn2)c1 | inactive: 112%
34 | COc1ccc(CCC(=O)OCC(=O)Nc2ccccc2OC(F)F)cc1OC | inconclusive: 100%
35 | COc1ccc(C(=O)Nc2ccc(-c3ccc(C)o3)cc2)cc1S(=O)(=O)N1CCOCC1 | inactive: 107%
36 | COc1ccc(-n2c(SCC(=O)N/N=C/c3ccccc3OCC(=O)O)nc3ccccc3c2=O)cc1 | inconclusive: 56.3%
37 | O=C(NN1C(=O)c2ccccc2C1=O)c1ccc2c(c1)C(=O)N(CC1CCCO1)C2=O (configuration not stated) | inconclusive: 164%
38 | COc1ccccc1N1CC(C)(C)C(=O)N(C(=O)c2ccc(Cl)cc2)C1=S | inconclusive: 101%

Gathered by group, the compounds so far containing a furan ring, fused or not
Row | Structure (SMILES) | binding response (% of control)
31 | N=C1C(c2ccccc2)=C(O)CN1c1cccc(S(=O)(=O)NCc2ccco2)c1 | inconclusive: 226%
32 | O=C(Nc1ccc(NC(=O)c2ccco2)cc1)c1ccc2c(c1)OCCO2 | inconclusive: 133%
35 | COc1ccc(C(=O)Nc2ccc(-c3ccc(C)o3)cc2)cc1S(=O)(=O)N1CCOCC1 | inactive: 107%

Next results

Row | Structure (SMILES) | binding response (% of control)
39 | O=C(CSc1nnc(NC2CCCCC2)s1)NCc1ccco1 | inconclusive: 110%
40 | CC1CCCCN1Cc1c(O)ccc2c(=O)c(-c3nc4ccccc4s3)coc12 (configuration not stated) | inconclusive: 88.4%
41 | COc1cc(OC)c2ccc(=O)oc2c1C(CCN1CCN(c2ccccc2)CC1)c1ccc(N(C)C)cc1 (configuration not stated) | inconclusive: 71.1%
42 | Cn1c(O)c(/C=C2\C=Nc3ccccc32)sc1=Nc1ccc(C(=O)O)cc1 | inconclusive: 112%
43 | Cc1nc2ccccc2n1CC(O)Cn1c(C(F)(F)F)nc2ccccc21 (configuration not stated) | active: -8.38%
44 | CC(NC(=O)c1c(Cl)cnn1C)C1CCCO1 (configuration not stated) | inconclusive: 122%
45 | O=C(NC(=S)NCCC1=CCCCC1)c1cccnc1 | inactive: 99.6%
46 | CC(=O)c1cn(-c2ccc(Cl)cc2)c(=O)n(Cc2ccc(Br)cc2)c1=O | inconclusive: 96.1%
47 | O=C1Nc2ccccc2/C1=C/c1cnc(-c2ccccc2)[nH]1 | inconclusive: 109%
48 | COc1ccc(-n2nc(C(=O)NCC(=O)N3CCN(c4ccccn4)CC3)c3ccccc3c2=O)cc1Cl | inactive: 102%
49 | CCN(CC)S(=O)(=O)c1ccc(N2CCOCC2)c(NC(=O)c2cc(=O)[nH]c3ccccc23)c1 | inconclusive: 97.5%
50 | CN1CCc2nc(SC(C(=O)O)c3ccccc3)c(C#N)c(-c3cccs3)c2C1 (configuration not stated) | inconclusive: 266%
51 | C[C@H](NC(=O)c1nc[nH]c1C(=O)N1CCN(c2ccccc2)CC1)C(=O)OC(C)(C)C | inconclusive: 103%
52 | O=C1C=C(O)c2c(O)cccc2C1=O | inconclusive: 118%
53 | CCOC(=O)c1sc(NC(=O)c2cc(-c3ccccc3)nc3ccccc23)c(C#N)c1C | inactive: 131%
54 | O=C(Nc1cc(C(F)(F)F)ccc1Cl)C(Sc1ccccn1)c1ccccc1 (configuration not stated) | inconclusive: 535%
55 | COC(=O)c1cc(CSC(=N)N)ccc1OCCC(C)C | inconclusive: 74.8%
56 | Cn1c(CSCc2ccc(Cl)cc2)n[nH]c1=S | inconclusive: 98%
57 | O=C(Nc1nc2ccsc2c(=O)s1)c1ccc(F)cc1 | inconclusive: 100%
